# Data reported in the supplement of paper PMC6411743.
# Protein sequences, listed by entry. Tags and fused reporters are not part of them. Lines headed by an entry give the natural chain unless they say otherwise; changes in a name come on top.
# UniProt Q8TDW0: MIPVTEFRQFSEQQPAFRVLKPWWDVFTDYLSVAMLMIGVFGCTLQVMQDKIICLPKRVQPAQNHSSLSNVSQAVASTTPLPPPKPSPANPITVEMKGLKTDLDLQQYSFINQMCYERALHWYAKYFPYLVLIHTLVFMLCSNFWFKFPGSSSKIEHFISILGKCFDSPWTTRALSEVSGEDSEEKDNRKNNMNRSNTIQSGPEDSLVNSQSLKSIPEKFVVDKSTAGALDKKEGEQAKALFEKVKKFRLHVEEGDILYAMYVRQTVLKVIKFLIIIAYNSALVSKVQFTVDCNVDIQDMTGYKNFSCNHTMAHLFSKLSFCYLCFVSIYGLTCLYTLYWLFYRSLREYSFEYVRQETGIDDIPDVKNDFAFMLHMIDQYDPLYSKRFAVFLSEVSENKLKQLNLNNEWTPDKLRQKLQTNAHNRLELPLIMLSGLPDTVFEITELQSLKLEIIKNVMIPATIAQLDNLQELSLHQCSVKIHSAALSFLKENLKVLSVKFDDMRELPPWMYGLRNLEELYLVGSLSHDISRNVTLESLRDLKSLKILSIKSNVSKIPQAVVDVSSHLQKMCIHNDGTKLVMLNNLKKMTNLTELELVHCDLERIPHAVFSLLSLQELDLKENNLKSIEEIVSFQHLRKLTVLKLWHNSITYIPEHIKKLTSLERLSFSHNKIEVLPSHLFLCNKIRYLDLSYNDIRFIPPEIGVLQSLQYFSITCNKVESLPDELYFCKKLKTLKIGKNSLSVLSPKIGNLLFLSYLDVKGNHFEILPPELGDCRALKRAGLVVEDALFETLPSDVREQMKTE
# UniProt Q8WUR7: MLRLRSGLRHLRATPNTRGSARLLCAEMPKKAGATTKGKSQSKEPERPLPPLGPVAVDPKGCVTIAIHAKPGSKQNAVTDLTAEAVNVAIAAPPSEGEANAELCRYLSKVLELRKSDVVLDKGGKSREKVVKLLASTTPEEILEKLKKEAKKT
# UniProt Q96AG4: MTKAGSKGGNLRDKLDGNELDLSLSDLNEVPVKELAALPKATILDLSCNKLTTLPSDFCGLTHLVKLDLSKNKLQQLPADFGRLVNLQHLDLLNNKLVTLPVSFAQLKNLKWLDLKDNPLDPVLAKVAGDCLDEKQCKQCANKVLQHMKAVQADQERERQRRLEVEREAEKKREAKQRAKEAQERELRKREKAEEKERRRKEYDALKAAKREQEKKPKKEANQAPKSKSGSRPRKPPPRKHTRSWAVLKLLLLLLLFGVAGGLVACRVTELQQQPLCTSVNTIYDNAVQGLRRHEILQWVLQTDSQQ
# UniProt Q8TDP1: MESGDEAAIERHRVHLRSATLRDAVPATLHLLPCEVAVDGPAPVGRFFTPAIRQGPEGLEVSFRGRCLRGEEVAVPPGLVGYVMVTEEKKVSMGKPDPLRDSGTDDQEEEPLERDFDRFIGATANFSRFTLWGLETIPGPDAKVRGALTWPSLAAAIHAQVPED
# UniProt Q8WZA9: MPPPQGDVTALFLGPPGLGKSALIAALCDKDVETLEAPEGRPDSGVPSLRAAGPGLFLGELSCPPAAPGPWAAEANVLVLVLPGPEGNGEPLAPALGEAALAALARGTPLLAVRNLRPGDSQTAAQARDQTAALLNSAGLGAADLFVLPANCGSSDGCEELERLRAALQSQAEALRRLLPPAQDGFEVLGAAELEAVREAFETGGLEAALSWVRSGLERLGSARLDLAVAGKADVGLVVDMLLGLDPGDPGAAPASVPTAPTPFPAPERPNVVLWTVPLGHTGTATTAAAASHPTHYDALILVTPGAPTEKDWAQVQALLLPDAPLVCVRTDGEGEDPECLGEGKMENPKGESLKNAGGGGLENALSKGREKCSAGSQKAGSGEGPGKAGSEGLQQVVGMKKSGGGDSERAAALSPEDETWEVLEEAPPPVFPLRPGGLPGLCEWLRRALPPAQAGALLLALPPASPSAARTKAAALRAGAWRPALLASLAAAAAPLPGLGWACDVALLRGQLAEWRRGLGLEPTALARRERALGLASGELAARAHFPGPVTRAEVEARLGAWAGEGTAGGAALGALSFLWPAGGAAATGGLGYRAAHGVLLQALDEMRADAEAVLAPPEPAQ
# UniProt Q8TC12: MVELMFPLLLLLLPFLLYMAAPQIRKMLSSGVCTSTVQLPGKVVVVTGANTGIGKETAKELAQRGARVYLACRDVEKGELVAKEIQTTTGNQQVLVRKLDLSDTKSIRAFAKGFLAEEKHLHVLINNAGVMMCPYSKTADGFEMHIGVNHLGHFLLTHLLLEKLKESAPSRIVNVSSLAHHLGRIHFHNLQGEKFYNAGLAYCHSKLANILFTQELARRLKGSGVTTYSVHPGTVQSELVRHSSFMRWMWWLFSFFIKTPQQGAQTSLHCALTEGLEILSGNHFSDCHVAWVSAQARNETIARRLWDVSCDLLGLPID
# UniProt Q8WW12: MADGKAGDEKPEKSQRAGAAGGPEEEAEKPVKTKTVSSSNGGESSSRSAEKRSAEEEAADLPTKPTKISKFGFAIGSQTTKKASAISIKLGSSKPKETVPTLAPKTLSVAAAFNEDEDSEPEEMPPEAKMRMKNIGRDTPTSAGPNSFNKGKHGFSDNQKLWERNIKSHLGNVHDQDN
# UniProt Q92667: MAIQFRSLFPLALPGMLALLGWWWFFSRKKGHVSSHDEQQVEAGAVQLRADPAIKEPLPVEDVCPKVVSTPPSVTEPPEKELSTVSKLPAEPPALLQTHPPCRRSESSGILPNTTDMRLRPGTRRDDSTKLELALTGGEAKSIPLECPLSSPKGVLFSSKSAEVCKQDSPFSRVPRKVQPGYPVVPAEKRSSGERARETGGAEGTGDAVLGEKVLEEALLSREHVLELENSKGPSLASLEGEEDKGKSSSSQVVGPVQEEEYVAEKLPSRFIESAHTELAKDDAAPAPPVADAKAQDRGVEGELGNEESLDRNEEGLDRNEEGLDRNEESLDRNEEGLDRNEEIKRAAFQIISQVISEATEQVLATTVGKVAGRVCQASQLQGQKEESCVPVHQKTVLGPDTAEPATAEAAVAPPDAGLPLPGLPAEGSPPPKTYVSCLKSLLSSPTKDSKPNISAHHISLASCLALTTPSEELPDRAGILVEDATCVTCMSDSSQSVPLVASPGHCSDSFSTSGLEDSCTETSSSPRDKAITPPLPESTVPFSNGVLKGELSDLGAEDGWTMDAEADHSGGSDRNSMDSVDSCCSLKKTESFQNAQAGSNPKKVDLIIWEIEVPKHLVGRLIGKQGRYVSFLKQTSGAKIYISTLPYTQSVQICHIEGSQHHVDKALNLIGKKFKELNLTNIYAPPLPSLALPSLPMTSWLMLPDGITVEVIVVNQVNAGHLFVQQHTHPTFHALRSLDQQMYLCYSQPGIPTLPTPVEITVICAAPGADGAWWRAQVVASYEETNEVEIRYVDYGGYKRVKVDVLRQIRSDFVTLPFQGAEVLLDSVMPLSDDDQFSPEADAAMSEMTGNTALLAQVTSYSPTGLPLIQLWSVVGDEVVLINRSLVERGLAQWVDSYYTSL
# UniProt Q8TDR0: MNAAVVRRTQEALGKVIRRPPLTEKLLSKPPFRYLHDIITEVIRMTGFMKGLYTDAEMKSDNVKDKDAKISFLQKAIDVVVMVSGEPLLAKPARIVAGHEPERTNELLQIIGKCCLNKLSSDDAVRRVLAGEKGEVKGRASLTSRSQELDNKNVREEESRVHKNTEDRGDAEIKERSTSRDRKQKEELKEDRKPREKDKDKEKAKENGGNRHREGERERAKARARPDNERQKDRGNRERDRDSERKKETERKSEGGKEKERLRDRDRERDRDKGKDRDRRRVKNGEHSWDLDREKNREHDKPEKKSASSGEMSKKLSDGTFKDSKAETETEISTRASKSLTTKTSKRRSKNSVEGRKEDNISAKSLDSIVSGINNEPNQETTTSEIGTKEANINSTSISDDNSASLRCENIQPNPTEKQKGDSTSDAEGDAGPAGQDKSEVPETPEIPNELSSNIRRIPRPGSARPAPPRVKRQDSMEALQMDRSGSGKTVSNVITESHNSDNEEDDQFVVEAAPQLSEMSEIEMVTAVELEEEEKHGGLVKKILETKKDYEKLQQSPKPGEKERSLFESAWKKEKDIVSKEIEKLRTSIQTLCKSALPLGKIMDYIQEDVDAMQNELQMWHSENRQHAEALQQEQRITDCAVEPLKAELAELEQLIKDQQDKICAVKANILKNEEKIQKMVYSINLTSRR
# UniProt Q8TDN6: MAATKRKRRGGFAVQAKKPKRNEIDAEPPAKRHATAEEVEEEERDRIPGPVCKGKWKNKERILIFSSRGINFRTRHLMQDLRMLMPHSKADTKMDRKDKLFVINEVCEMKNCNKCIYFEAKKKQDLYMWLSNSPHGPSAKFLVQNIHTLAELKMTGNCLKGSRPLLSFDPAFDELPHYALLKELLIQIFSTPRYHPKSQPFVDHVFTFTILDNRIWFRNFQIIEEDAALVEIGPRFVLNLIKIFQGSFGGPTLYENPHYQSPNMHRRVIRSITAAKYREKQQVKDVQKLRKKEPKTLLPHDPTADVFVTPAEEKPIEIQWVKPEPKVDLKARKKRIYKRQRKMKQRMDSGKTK
# UniProt Q8WU10: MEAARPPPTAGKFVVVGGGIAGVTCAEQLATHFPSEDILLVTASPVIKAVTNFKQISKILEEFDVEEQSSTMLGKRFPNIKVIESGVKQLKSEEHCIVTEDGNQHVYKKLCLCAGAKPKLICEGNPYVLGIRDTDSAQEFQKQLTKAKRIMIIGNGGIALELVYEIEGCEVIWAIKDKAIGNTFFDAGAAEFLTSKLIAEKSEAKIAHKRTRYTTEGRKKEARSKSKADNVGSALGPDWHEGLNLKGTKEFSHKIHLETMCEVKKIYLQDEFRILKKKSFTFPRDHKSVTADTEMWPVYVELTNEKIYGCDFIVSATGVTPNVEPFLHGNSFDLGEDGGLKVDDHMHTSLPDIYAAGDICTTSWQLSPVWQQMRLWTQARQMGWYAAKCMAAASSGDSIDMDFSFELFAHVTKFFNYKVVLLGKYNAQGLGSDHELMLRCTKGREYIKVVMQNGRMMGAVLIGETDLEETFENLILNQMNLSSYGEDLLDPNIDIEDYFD
# UniProt Q8WY54: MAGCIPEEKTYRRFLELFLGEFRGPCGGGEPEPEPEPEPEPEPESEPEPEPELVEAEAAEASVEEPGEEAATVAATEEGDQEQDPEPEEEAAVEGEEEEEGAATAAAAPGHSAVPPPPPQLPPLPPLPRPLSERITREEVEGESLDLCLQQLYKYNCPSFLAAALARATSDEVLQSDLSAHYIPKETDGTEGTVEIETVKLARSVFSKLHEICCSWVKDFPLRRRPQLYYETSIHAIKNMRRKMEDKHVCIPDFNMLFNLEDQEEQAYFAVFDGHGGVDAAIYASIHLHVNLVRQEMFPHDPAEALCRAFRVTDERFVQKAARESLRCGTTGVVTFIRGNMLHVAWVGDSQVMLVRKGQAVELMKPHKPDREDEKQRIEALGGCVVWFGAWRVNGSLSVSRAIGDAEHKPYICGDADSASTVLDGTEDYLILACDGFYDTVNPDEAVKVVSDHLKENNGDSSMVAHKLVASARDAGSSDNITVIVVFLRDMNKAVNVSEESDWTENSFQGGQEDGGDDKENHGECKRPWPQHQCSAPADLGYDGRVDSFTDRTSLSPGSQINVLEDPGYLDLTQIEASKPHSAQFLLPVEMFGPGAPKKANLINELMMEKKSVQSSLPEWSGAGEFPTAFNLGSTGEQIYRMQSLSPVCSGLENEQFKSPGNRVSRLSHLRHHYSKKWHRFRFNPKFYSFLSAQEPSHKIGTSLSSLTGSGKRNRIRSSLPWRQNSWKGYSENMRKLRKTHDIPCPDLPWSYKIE
# UniProt Q93050, whole entry: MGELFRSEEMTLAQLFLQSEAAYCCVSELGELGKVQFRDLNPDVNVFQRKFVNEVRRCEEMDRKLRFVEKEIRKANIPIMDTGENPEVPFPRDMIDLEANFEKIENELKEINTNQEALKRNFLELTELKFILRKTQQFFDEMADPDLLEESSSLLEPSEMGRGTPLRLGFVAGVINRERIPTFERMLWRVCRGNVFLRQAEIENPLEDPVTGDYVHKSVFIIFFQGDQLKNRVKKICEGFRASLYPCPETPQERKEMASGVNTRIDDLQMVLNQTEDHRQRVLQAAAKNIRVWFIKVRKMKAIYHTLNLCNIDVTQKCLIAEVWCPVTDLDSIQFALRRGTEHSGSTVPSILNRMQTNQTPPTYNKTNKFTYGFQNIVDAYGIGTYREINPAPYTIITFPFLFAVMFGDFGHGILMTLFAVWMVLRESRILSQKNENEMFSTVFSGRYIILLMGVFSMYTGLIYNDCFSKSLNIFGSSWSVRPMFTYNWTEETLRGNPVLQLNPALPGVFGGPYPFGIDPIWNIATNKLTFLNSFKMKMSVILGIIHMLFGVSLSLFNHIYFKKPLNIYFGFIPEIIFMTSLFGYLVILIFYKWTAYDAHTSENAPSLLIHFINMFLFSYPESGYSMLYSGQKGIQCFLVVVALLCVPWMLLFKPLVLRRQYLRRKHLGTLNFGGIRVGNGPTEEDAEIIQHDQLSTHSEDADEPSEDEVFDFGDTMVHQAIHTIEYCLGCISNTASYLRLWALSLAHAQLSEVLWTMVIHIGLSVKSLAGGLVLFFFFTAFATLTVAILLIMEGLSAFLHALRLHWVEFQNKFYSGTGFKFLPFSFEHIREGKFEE
# ± gives the standard deviation of the averaged measurements. This is a selection; strong and weak results do not stand in their true shares.
# Compound: Nc1ncnc2c1ncn2[C@@H]1O[C@H](COP(=O)(O)OP(=O)(O)OP(=O)(O)O)[C@@H](O)[C@H]1O [adenosine triphosphate]
# Assay: NP40-soluble protein abundance relative to vehicle (solubility fold change) (ratio); higher = more soluble protein in presence of ATP
# Method in brief: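 Jurkat crude lysate prepared with a Dounce homogeniser was treated at eight concentrations spanning 0.1 to 10 mM, 10 min at room temperature then 3 min at 37 °C. Solubilisation with 0.8% NP40 and benzonase and ultracentrifugation preceded TMT labelling of the supernatant for LC-MS/MS. Fold change against the detergent-processed vehicle was determined per replicate from vsn-normalised intensities, across three independent experiments.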
Target,NP40-soluble protein abundance (concentration: 1mM),NP40-soluble protein abundance (concentration: 2mM),NP40-soluble protein abundance (concentration: 4mM),NP40-soluble protein abundance (concentration: 6mM),NP40-soluble protein abundance (concentration: 8mM),NP40-soluble protein abundance (concentration: 10mM)
SPPL2B (UniProt Q8TCT7),0.981 ± 0.045,0.976 ± 0.047,0.962 ± 0.089,0.992 ± 0.059,0.942 ± 0.046,0.984 ± 0.082
LRRC8C (UniProt Q8TDW0),1.03 ± 0.071,1.05 ± 0.07,1.07 ± 0.1,1.13 ± 0.13,1.16 ± 0.013,1.1 ± 0.086
GLMN (UniProt Q92990),1.04 ± 0.057,1.02 ± 0.037,0.98 ± 0.074,0.994 ± 0.062,1.01 ± 0.046,0.926 ± 0.055
UniProt Q92688 and related entries,0.824 ± 0.085,0.806 ± 0.043,0.744 ± 0.059,0.774 ± 0.051,0.726 ± 0.021,0.697 ± 0.11
UniProt Q8TCA0 and related entries,0.9485 ± 0.0055,0.959 ± 0.018,0.966 ± 0.042,0.932 ± 0.054,0.924 ± 0.0096,0.931 ± 0.039
KBTBD7 (UniProt Q8WVZ9),1.12 ± 0.045,1.09 ± 0.034,1.11 ± 0.025,1.03 ± 0.1,1.06 ± 0.0024,1.03 ± 0.015
MUL1 (UniProt Q969V5),1.03 ± 0.039,1.01 ± 0.02,1.02 ± 0.033,1.02 ± 0.036,1.03 ± 0.043,1.04 ± 0.035
UniProt Q969H6 and related entries,0.899 ± 0.15,1.02 ± 0.22,0.989 ± 0.096,0.8537 ± 0.0039,1.04 ± 0.067,1.08 ± 0.12
UniProt Q8WV93,0.911 ± 0.047,0.877 ± 0.056,0.799 ± 0.076,0.89 ± 0.087,0.811 ± 0.11,0.828 ± 0.13
C15orf40 (UniProt Q8WUR7),0.909 ± 0.086,0.955 ± 0.077,0.959 ± 0.052,0.978 ± 0.1,0.896 ± 0.034,0.9 ± 0.086
LRRC59 (UniProt Q96AG4),0.848 ± 0.19,0.925 ± 0.029,0.955 ± 0.023,0.995 ± 0.065,0.988 ± 0.046,0.924 ± 0.13
RABGGTA (UniProt Q92696),1.03 ± 0.095,1.02 ± 0.076,1.01 ± 0.064,0.947 ± 0.11,1.01 ± 0.049,0.988 ± 0.044
UniProt Q8TDH9,0.964 ± 0.1,0.89 ± 0.021,0.908 ± 0.081,0.858 ± 0.13,0.923 ± 0.053,0.791 ± 0.12
UniProt Q8TD26 and related entries,1.06 ± 0.061,1.13 ± 0.022,1.13 ± 0.053,1.11 ± 0.11,1.11 ± 0.016,1.11 ± 0.091
RTN4IP1 (UniProt Q8WWV3),1.03 ± 0.037,1.04 ± 0.047,0.997 ± 0.018,0.995 ± 0.025,1.03 ± 0.021,1.01 ± 0.063
UniProt Q8TE04 and related entries,0.996 ± 0.023,1.01 ± 0.022,1.072 ± 0.0054,1.07 ± 0.1,1.08 ± 0.094,1.05 ± 0.05
UniProt Q969H8,0.985 ± 0.13,1.01 ± 0.095,0.975 ± 0.094,0.969 ± 0.11,0.949 ± 0.054,0.97 ± 0.052
UniProt Q8TDZ2 and related entries,0.99 ± 0.016,0.971 ± 0.023,0.94 ± 0.03,0.955 ± 0.071,0.918 ± 0.011,0.945 ± 0.027
UBASH3B (UniProt Q8TF42),0.993 ± 0.082,0.982 ± 0.071,0.979 ± 0.052,0.93 ± 0.11,1 ± 0.041,0.973 ± 0.068
UniProt Q92616,1.04 ± 0.067,1.01 ± 0.043,0.993 ± 0.034,0.96 ± 0.031,0.996 ± 0.04,1.01 ± 0.047
CCDC102A (UniProt Q96A19),0.973 ± 0.087,0.944 ± 0.17,0.937 ± 0.09,0.928 ± 0.11,0.943 ± 0.099,1.1 ± 0.13
RNASEH2C (UniProt Q8TDP1),0.975 ± 0.046,0.966 ± 0.033,0.923 ± 0.018,0.927 ± 0.057,0.923 ± 0.043,0.914 ± 0.054
UniProt Q92552 and related entries,0.985 ± 0.052,0.939 ± 0.054,0.876 ± 0.057,0.909 ± 0.15,0.872 ± 0.11,0.851 ± 0.096
ZNF384 (UniProt Q8TF68),1.02 ± 0.065,1.05 ± 0.071,1.01 ± 0.098,1 ± 0.046,0.963 ± 0.058,0.986 ± 0.085

Target,NP40-soluble protein abundance (concentration: 1mM),NP40-soluble protein abundance (concentration: 2mM),NP40-soluble protein abundance (concentration: 4mM),NP40-soluble protein abundance (concentration: 6mM),NP40-soluble protein abundance (concentration: 8mM),NP40-soluble protein abundance (concentration: 10mM)
UniProt Q8WZA9,0.931 ± 0.037,0.958 ± 0.015,0.926 ± 0.014,0.957 ± 0.022,0.919 ± 0.026,0.892 ± 0.037
PNPT1 (UniProt Q8TCS8),0.993 ± 0.031,0.974 ± 0.024,0.952 ± 0.02,0.936 ± 0.034,0.967 ± 0.014,0.966 ± 0.035
UniProt Q96B96 and related entries,0.904 ± 0.04,0.915 ± 0.013,0.911 ± 0.031,0.882 ± 0.015,0.823 ± 0.027,0.936 ± 0.056
DHX38 (UniProt Q92620),1.09 ± 0.03,1.11 ± 0.019,1.14 ± 0.018,1.19 ± 0.03,1.19 ± 0.029,1.17 ± 0.039
UniProt Q8WYL5,1.01 ± 0.051,0.854 ± 0.1,0.826 ± 0.025,0.921 ± 0.038,0.775 ± 0.059,0.87 ± 0.075
RDH11 (UniProt Q8TC12),0.959 ± 0.11,0.938 ± 0.072,0.925 ± 0.026,0.884 ± 0.11,0.946 ± 0.031,0.972 ± 0.035
UniProt Q8TEW0 and related entries,0.988 ± 0.11,1.02 ± 0.11,1.03 ± 0.1,1.04 ± 0.11,1.03 ± 0.13,1.09 ± 0.15
EMG1 (UniProt Q92979),1.1 ± 0.033,1.11 ± 0.044,1.19 ± 0.027,1.18 ± 0.072,1.214 ± 0.01,1.26 ± 0.018
BAD (UniProt Q92934),0.861 ± 0.12,0.887 ± 0.12,0.915 ± 0.1,1.05 ± 0.21,0.896 ± 0.15,0.903 ± 0.17
PCNP (UniProt Q8WW12),0.923 ± 0.095,0.947 ± 0.081,0.903 ± 0.032,0.975 ± 0.11,0.879 ± 0.03,0.847 ± 0.11
STT3B (UniProt Q8TCJ2),0.962 ± 0.047,0.967 ± 0.052,0.965 ± 0.012,0.906 ± 0.027,0.966 ± 0.017,0.976 ± 0.061
UniProt Q8WXA9-2,1.37 ± 0.043,1.38 ± 0.053,1.38 ± 0.061,1.44 ± 0.06,1.38 ± 0.083,1.39 ± 0.058
AKAP1 (UniProt Q92667),0.992 ± 0.031,1 ± 0.014,0.981 ± 0.016,1.03 ± 0.048,0.971 ± 0.057,0.999 ± 0.027
UniProt Q8TDR0 and related entries,0.99 ± 0.027,0.997 ± 0.041,1.04 ± 0.035,0.938 ± 0.14,0.959 ± 0.03,1.04 ± 0.053
DTX3L (UniProt Q8TDB6),1.07 ± 0.037,1.09 ± 0.015,1.113 ± 0.011,1.13 ± 0.049,1.14 ± 0.02,1.16 ± 0.051
THAP4 (UniProt Q8WY91),1.05 ± 0.034,0.971 ± 0.029,0.973 ± 0.097,1.02 ± 0.09,0.989 ± 0.051,0.955 ± 0.044
UniProt Q8TDN6,1.04 ± 0.029,1.11 ± 0.073,1.13 ± 0.068,1.24 ± 0.079,1.2 ± 0.043,1.35 ± 0.065
UniProt Q8WVQ1 and related entries,1.03 ± 0.11,1.03 ± 0.15,1.01 ± 0.096,1 ± 0.095,0.992 ± 0.083,0.963 ± 0.093
PYROXD1 (UniProt Q8WU10),1.03 ± 0.073,1.06 ± 0.064,1.06 ± 0.12,0.963 ± 0.1,0.989 ± 0.086,1.02 ± 0.038
FAR1 (UniProt Q8WVX9),1.05 ± 0.093,1.06 ± 0.042,1.11 ± 0.042,1.05 ± 0.096,1.2 ± 0.083,1.17 ± 0.012
UniProt Q8TF46 and related entries,1 ± 0.032,0.982 ± 0.057,1 ± 0.072,0.973 ± 0.06,0.957 ± 0.054,0.967 ± 0.081
UniProt Q96B23-2,0.803 ± 0.099,0.759 ± 0.099,0.74 ± 0.09,0.779 ± 0.09,0.712 ± 0.062,0.711 ± 0.052
UniProt Q8WY54 and related entries,0.972 ± 0.036,0.9 ± 0.14,0.941 ± 0.091,0.934 ± 0.064,0.928 ± 0.037,0.899 ± 0.056
UniProt Q93050 and related entries,1.03 ± 0.011,0.981 ± 0.018,0.981 ± 0.018,0.98 ± 0.098,0.983 ± 0.044,0.992 ± 0.06

# Exported bar-delimited: part of the list above.
Target | NP40-soluble protein abundance (concentration: 1mM) | NP40-soluble protein abundance (concentration: 2mM) | NP40-soluble protein abundance (concentration: 4mM) | NP40-soluble protein abundance (concentration: 6mM) | NP40-soluble protein abundance (concentration: 8mM) | NP40-soluble protein abundance (concentration: 10mM)
RTN4IP1 (UniProt Q8WWV3) | 1.03 ± 0.037 | 1.04 ± 0.047 | 0.997 ± 0.018 | 0.995 ± 0.025 | 1.03 ± 0.021 | 1.01 ± 0.063
UniProt Q8TE04 and related entries | 0.996 ± 0.023 | 1.01 ± 0.022 | 1.072 ± 0.0054 | 1.07 ± 0.1 | 1.08 ± 0.094 | 1.05 ± 0.05
